Literature values, collected in US4985430A, “9-acylamino-tetrahydroacridine derivatives and memory enhancing agent containing said derivative as active ingredient” (priority 1987, dated 1991).
For at least one compound, name, drawing or mass did not settle the structure.

How the values were obtained:
acetylcholine esterase = settings: Journal of Medicinal Chemistry, Vol. 18, p. 1056 (1975); cited from earlier work
[1] = Chem. listy, Vol. 51, p. 1056 (1957); cited from earlier work

Compound | activity (acetylcholine esterase inhibiting function) relative to that of 9-amino-tetrahydroacridine (acetylcholine esterase) | local anesthetic function [1]
O=C(Nc1c2c(nc3ccccc13)CCCC2)c1ccccc1 [9-benzoylaminotetrahydroacridine] | 1/1000 | –
CCN(CC)CC(=O)Nc1c2c(nc3ccccc13)CCCC2 [9-diethylaminoacetylamino-tetrahydroacridine] | – | has local anesthetic function
CC(=O)Nc1c2c(nc3ccccc13)CCCC2 [9-acetylamino-tetrahydroacridine] | 1/1000 | –
